## Percent effect of library compounds

The values are deposited in ChEMBL (CHEMBL3988442, “University of Dundee, Small-Polar-MMV Screening Library” (2021)).

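Growth of Mycobacterium tuberculosis over 4 days (cholesterol / DPPC medium with tyloxapol); the read-out is not stated. Tested at 50 µM. Higher reads as more growth inhibition (inferred: compounds with an IC50 in retests scored well above the rest). About 69,000 compounds were tested under these conditions; 0.54% (about 370) showed 50% or more at least once.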

Results are given as percent effect. The controls that fix the scale are not given in the record; negative values are as filed. The compounds are a random part of those screened. Two or more numbers in one place are separate tests of the same structure; such repeats can differ widely.

compound | Percent Effect
Cc1cc(Nc2ccccn2)nc(C2CCCN(CCO)C2)n1.O=CO (centres undefined) | -0.1761%
CC(C)CCC1=NC2(CCN(C(=O)N3CCN(C)CC3)CC2)C(=O)N1 | -12.9% & -6.955%
O=S(=O)(c1ccc2c(c1)OCCO2)N1CCc2ccccc2C1 | -6.577%
COc1ccccc1CN1CCC(O)(Cn2ccc3ncccc32)CC1 | 4.384%
CCN(C)c1ncnc2c1CCN(Cc1ccsc1)CC2.O=C(O)C(F)(F)F.O=C(O)C(F)(F)F | 4.313%
Cc1cnn(CC2CCCCN2Cc2cc(C)on2)c1 (centres undefined) | 0.7904%
CNc1ccc(CC2CCCN(C(=O)c3cccc(C)n3)C2)nn1 (centres undefined) | -17.93%
Cc1ccc(CN(C)C)cc1NC(=O)C1CC1 | 13.39%
O=C1CCNc2ccc(F)cc2CN1Cc1ccccc1 | -24.57%
COCCN(CCOC)c1ncccc1I | -34.47%
O=S(=O)(C1CC1)N1CCOC2(COCCN(c3ncccn3)C2)C1 (centres undefined) | -11.91%
CN(C)CCN1CC(C(=O)N2CCC(c3cccc(O)c3)CC2)CC1=O (centres undefined) | 9.069%
CC(C)[C@@H]1CN(Cc2ccccc2C#N)C[C@H]1N(C)C | -29.21%
CC(=O)c1cccc(S(=O)(=O)NCC(C)(O)c2cccs2)c1 (centres undefined) | 7.809%
CC(C)c1nn(C)c(N(C)C)c1CNCc1ccnc(N(C)C)c1 | 1.017%
O=C(Nc1ccccc1)c1ccc(NCc2nccs2)nn1 | 10.99%
Cc1ccc2c(c1)C(NC(=O)N(C)C)CC21CCN(C(C)C)CC1.O=C(O)C(F)(F)F (centres undefined) | -24.11%
COC(=O)c1ccc(N2CCN(C(=O)C3CCC3)C(C)C2)cc1 (centres undefined) | -6.793%
CC(C)(C)S(=O)(=O)c1ccc(N2CCC(n3ccnc3)CC2)cn1 | -12.23%
COc1ccc(NC(=O)N(CCO)Cc2ccsc2)c(OC)c1 | 3.142%
CC(C)(C)n1ncc2c(=O)n(CC(=O)NCc3ccccc3Cl)cnc21 | -27.36%
O=C(CCc1ccco1)Nc1cccc(S(=O)(=O)C(F)F)c1 | -16.76%
OCCN1CCOC2(CCCN(c3ncccn3)C2)C1 (centres undefined) | -2.438%
CCOc1ccc(CC(=O)N2CCN(c3nccn3CC)CC2)cc1.Cl | 0.9821%
Cc1ccc(C(=O)N2CCC(Oc3ccc(F)cc3F)CC2)c(=O)[nH]1 | -7.901%
O=C(O)C(F)(F)F.[H][C@@]12CCN(CCc3ccccc3)C[C@@]1([H])[C@H](C(=O)NCC1CC1)CCO2 | -1.887%
Fc1ccc2[nH]c(CO[C@H]3CN(CC4CC4)C[C@H]3F)nc2c1 | 13.27%
OC(COc1ccc(F)cc1)CN1CCC(Cn2cccn2)CC1 (centres undefined) | -0.1303%
[H][C@@]12CS(=O)(=O)C[C@]1([H])N(Cc1cnn(-c3ccccc3OC)c1)CCN2C | 5.035%
Cc1cccc(C(=O)N2CCCSCC2CN2CCCC2)c1 (centres undefined) | -3.288%
[H][C@@]12CCN(C(=O)c3c(C)noc3C)C[C@@]1([H])O[C@H](c1ccncn1)C2 | -16.32%
CCn1c(SCC(=O)O)nnc1C(C)NC(=O)c1ccc(Cl)cc1 (centres undefined) | -14.09%
Cn1cnc2c1C(C(=O)N1CCOCC1)N(C(=O)c1ccccc1)CC2 (centres undefined) | 6.511%
CCOc1nc2cnccc2n(CC(=O)Nc2ccccc2OC)c1=O | -11.27%
CO[C@@H]1CO[C@@]2(CCCN(C(=O)C3CC=CC3)C2)C1 | 4.34%
CCN1CCN(C(=O)c2ccc(OC)nn2)c2ccccc21 | 11.24%
Cc1ccccc1OCCC(=O)NC(C)c1nnc2n1CCCCC2 (centres undefined) | -32.57%
[H][C@@]12COC[C@]1(COCC(=O)N(C)C)CN(Cc1cc(C)on1)C2 | 3.324%
Cc1nnc2n1CCN(C(=O)c1cnc3c(cnn3C(C)C)c1)C2 | -29.81%
Cc1ccc2c(c1)SCC(=O)N2Cc1noc(C2CC2)n1 | -15.97%
Cc1cc(C)nc(N2CCC(c3c(C(N)=O)sc4ccccc34)C2)n1 (centres undefined) | -18.7%
Cc1ccccc1C(C(=O)N(C)Cc1cnn(C)c1)N(C)C (centres undefined) | -23.94%
CCn1cc(N2Cc3nc(N4CCN(C)CC4)ncc3C2=O)cn1 | -1.825%
O=C(O)C(F)(F)F.[H][C@@]12COC[C@]1(CNC(=O)c1ccsc1)CN(Cc1cnn(C)c1)C2 | -2.405%
O=C(CC1CC1)NC1CCc2c(ccc(=O)n2CC2CC2)C1 (centres undefined) | -10.23%
CC(c1ncc(-c2ccccc2)o1)N1CCN(C(=O)N(C)C)CC1 (centres undefined) | -2.213%
CCc1ccsc1C(=O)NCCn1nc2ccccn2c1=O | 5.157%
CC(C(=O)Nc1ccon1)n1ccc(C(F)(F)F)n1 (centres undefined) | -30%
Cc1n[nH]c(C)c1-c1cnc(CC2CCCN(S(C)(=O)=O)C2)cn1 (centres undefined) | -22.54%
Cc1nc(N2CCOCC2)nc(C)c1NS(=O)(=O)c1ccccc1 | 11.72%
N#Cc1c(F)cccc1N1CCC(NS(=O)(=O)c2cccs2)CC1 | -37.53%
Cc1ccc(-c2cn[nH]c2C2CCCN(c3cc(N)ncn3)C2)cc1 (centres undefined) | -9.132%
Cc1nccn1CCCN1CCC2(CCC(=O)N(CC3CC3)C2)CC1 | -8.285% & -10.27%
CC(C)(C(=O)N1CCC(C(N)=O)C1)c1ccccc1F (centres undefined) | -12.27%
CNC(=O)CC1CC2(CCN(Cc3nccs3)CC2)c2ccccc21.O=C(O)C(F)(F)F (centres undefined) | 11.44% & 8.636%
Cc1nccn1-c1ccc(C(C)NCCc2ccccn2)cc1 (centres undefined) | -8.931%
NC(=O)CN(Cc1ncc(-c2ccc(Cl)cc2)o1)C1CCCC1 | 17.61%
CC(C)[C@H]1CN(Cc2ccccn2)C[C@@H]1NC(=O)CCS(C)(=O)=O | 15.38%
COc1ccc(-c2nc(CSC3CCCCNC3=O)co2)cc1 (centres undefined) | 4.492%
Cc1cn(CC(=O)Nc2cc(C(C)C)nn2C)cn1 | 3.433%
O=C1CO[C@H](c2ccc(NS(=O)(=O)Cc3ccccc3)cc2)[C@@H](CO)N1 | -28.82%
O=c1oc(-c2cccs2)nn1CC(O)c1ccc2c(c1)CCC2 (centres undefined) | -10.83% & -22.27%
COc1ccc2[nH]cc(-c3ccnc(NC4CCCC4)n3)c2c1 | 13.08%
Cc1ccc(C(=O)O)c(N2Cc3cnc(C(C)(C)C)nc3C2)n1 | -15.91%
CCC1CCCCN1Cc1nc2c(cnn2C)c(=O)[nH]1 (centres undefined) | 6.8%
COc1ccc(CN(C)[C@@H]2COC[C@H]2c2ccc(F)cc2)cc1.O=C(O)CC(O)(CC(=O)O)C(=O)O | 0.7066% & 11.17%

Once more, the final 7:

Result for Cc1cn(CC(=O)Nc2cc(C(C)C)nn2C)cn1 was 3.433%.
Result for O=C1CO[C@H](c2ccc(NS(=O)(=O)Cc3ccccc3)cc2)[C@@H](CO)N1 was -28.82%.
Result for O=c1oc(-c2cccs2)nn1CC(O)c1ccc2c(c1)CCC2 (centres undefined) was -10.83% & -22.27%.
Result for COc1ccc2[nH]cc(-c3ccnc(NC4CCCC4)n3)c2c1 was 13.08%.
Result for Cc1ccc(C(=O)O)c(N2Cc3cnc(C(C)(C)C)nc3C2)n1 was -15.91%.
Result for CCC1CCCCN1Cc1nc2c(cnn2C)c(=O)[nH]1 (centres undefined) was 6.8%.
Result for COc1ccc(CN(C)[C@@H]2COC[C@H]2c2ccc(F)cc2)cc1.O=C(O)CC(O)(CC(=O)O)C(=O)O was 0.7066% & 11.17%.